Test results reported in PMC8716824, “Design, Synthesis and Anti-Lung Cancer Evaluation of 1, 2, 3-Triazole Tethered Dihydroartemisinin-Isatin Hybrids” (Frontiers in Pharmacology, 2021).

Experiments:
[1] = tested on: doxorubicin-resistant A549 (A549/DOX) lung cancer cells; assay: MTT antiproliferative assay, A549/DOX; type: cell-based; conditions: IC50(A549/DOX)/IC50(A549)
Protocol: (§1) The antiproliferative activity of 1,2,3-triazole tethered dihydroartemisinin-isatin hybrids 8a-c and 9a-k against A549, multidrug-resistant A549/DOX and A549/DDP lung cancer cell lines as well as cytotoxicity towards mouse embryonic fibroblast cells NIH/3T3 were assessed by 3-(4,5-dimethylthiazol-2-yl)-2,5-diphenyltetrazolium bromide (MTT) assay, and half maximal inhibitory concentration (IC50) values were listed in Table 2. A549, A549/DOX, and A549/DDP lung cancer cells (2 × 10^3) were plated in each well of a 96-well plate and were allowed to adhere and spread for 24 h. The 1,2,3-triazole tethered dihydroartemisinin-isatin hybrids 8a-c and 9a-k were added to a final concentration of 100 μM, and the cells were cultured for 24 h at 37°C. 3-(4,5-dimethyl-2-thiazolyl)-2,5-diphenyltetrazolium bromide (MTT) solution (10 µL) was added to each well, and the cultures were incubated for an additional 4 h. A further 100 µL of […] was added and incubation continued overnight. The absorbance at 540 nm was determined in each well with a 96-well plate reader. The growth of the treated cells was compared with that of untreated cells.

[2] = tested on: cisplatin-resistant A549 (A549/DDP) lung cancer cells; assay: MTT antiproliferative assay, A549/DDP; type: cell-based; conditions: for RI2 (resistance index): IC50(A549/DDP)/IC50(A549); for folds more potent than cisplatin against A549/DDP: IC50 cisplatin / IC50 hybrid, A549/DDP cells
Protocol: as §1

Row | Structure (SMILES) | RI1 (resistance index) [1] | RI2 (resistance index) [2] | folds more potent than cisplatin against A549/DDP [2]
1 | COc1ccc2c(c1)C(=O)C(=O)N2CCn1cc(COC2O[C@@H]3O[C@@]4(C)CC[C@H]5[C@H](C)CC[C@@H]([C@H]2C)[C@@]35OO4)nn1 (stereo partly drawn) [8b, 5-methoxy-1-(2-(4-((((3R,5aS,6R,8aS,9R,12R,12aR)-3,6,9-trimethyldecahydro-12H-3,12-epoxy[1,2]dioxepino[4,3-i]isochromen-10-yl)oxy)methyl)-1H-1,2,3-triazol-1-yl)ethyl)indoline-2,3-dione] | 1.48 | 0.90 | –
2 | COc1ccc2c(c1)C(=NOCc1ccccc1)C(=O)N2CCn1cc(COC2O[C@@H]3O[C@@]4(C)CC[C@H]5[C@H](C)CC[C@@H]([C@H]2C)[C@@]35OO4)nn1 (stereo partly drawn) [9h, 3-((benzyloxy)imino)-5-methoxy-1-(2-(4-((((3R,5aS,6R,8aS,9R,12R,12aR)-3,6,9-trimethyldecahydro-12H-3,12-epoxy[1,2]dioxepino[4,3-i]isochromen-10-yl)oxy)methyl)-1H-1,2,3-triazol-1-yl)ethyl)indolin-2-one] | 1.74 | 1.33 | –
3 | CON=C1C(=O)N(CCn2cc(COC3O[C@@H]4O[C@@]5(C)CC[C@H]6[C@H](C)CC[C@@H]([C@H]3C)[C@@]46OO5)nn2)c2ccccc21 (stereo partly drawn) [9c, 3-(methoxyimino)-1-(2-(4-((((3R,5aS,6R,8aS,9R,12R,12aR)-3,6,9-trimethyldecahydro-12H-3,12-epoxy[1,2]dioxepino[4,3-i]isochromen-10-yl)oxy)methyl)-1H-1,2,3-triazol-1-yl)ethyl)indolin-2-one] | 0.86 | 1.20 | –
4 | CON=C1C(=O)N(CCn2cc(COC3O[C@@H]4O[C@@]5(C)CC[C@H]6[C@H](C)CC[C@@H]([C@H]3C)[C@@]46OO5)nn2)c2ccc(OC)cc21 (stereo partly drawn) [9f, 5-methoxy-3-(methoxyimino)-1-(2-(4-((((3R,5aS,6R,8aS,9R,12R,12aR)-3,6,9-trimethyldecahydro-12H-3,12-epoxy[1,2]dioxepino[4,3-i]isochromen-10-yl)oxy)methyl)-1H-1,2,3-triazol-1-yl)ethyl)indolin-2-one] | 1.22 | 0.79 | –
5 | CCON=C1C(=O)N(CCn2cc(COC3O[C@@H]4O[C@@]5(C)CC[C@H]6[C@H](C)CC[C@@H]([C@H]3C)[C@@]46OO5)nn2)c2ccc(OC)cc21 (stereo partly drawn) [9g, 3-(ethoxyimino)-5-methoxy-1-(2-(4-((((3R,5aS,6R,8aS,9R,12R,12aR)-3,6,9-trimethyldecahydro-12H-3,12-epoxy[1,2]dioxepino[4,3-i]isochromen-10-yl)oxy)methyl)-1H-1,2,3-triazol-1-yl)ethyl)indolin-2-one] | 0.61 | 0.84 | –
6 | C[C@@H]1CC[C@H]2[C@@H](C)C(OCc3cn(CCN4C(=O)C(=O)c5cc(F)ccc54)nn3)O[C@@H]3O[C@@]4(C)CC[C@@H]1[C@]32OO4 (stereo partly drawn) [8c, 5-fluoro-1-(2-(4-((((3R,5aS,6R,8aS,9R,12R,12aR)-3,6,9-trimethyldecahydro-12H-3,12-epoxy[1,2]dioxepino[4,3-i]isochromen-10-yl)oxy)methyl)-1H-1,2,3-triazol-1-yl)ethyl)indoline-2,3-dione] | 1.31 | 1.16 | 4.6–7.6 folds
7 | C[C@H]1[C@@H](O)O[C@@H]2O[C@@]3(C)CC[C@H]4[C@H](C)CC[C@@H]1[C@@]24OO3 [DHA, Dihydroartemisinin] | 1.27 | 1.09 | –
8 | C[C@@H]1CC[C@H]2[C@@H](C)C(OCc3cn(CCN4C(=O)C(=NNC(N)=S)c5ccccc54)nn3)O[C@@H]3O[C@@]4(C)CC[C@@H]1[C@]32OO4 (stereo partly drawn) [9a, 2-(2-oxo-1-(2-(4-((((3R,5aS,6R,8aS,9R,12R,12aR)-3,6,9-trimethyldecahydro-12H-3,12-epoxy[1,2]dioxepino[4,3-i]isochromen-10-yl)oxy)methyl)-1H-1,2,3-triazol-1-yl)ethyl)indolin-3-ylidene)hydrazine-1-carbothioamide] | 2.35 | 1.90 | –
9 | CCON=C1C(=O)N(CCn2cc(COC3O[C@@H]4O[C@@]5(C)CC[C@H]6[C@H](C)CC[C@@H]([C@H]3C)[C@@]46OO5)nn2)c2ccccc21 (stereo partly drawn) [9d, 3-(ethoxyimino)-1-(2-(4-((((3R,5aS,6R,8aS,9R,12R,12aR)-3,6,9-trimethyldecahydro-12H-3,12-epoxy[1,2]dioxepino[4,3-i]isochromen-10-yl)oxy)methyl)-1H-1,2,3-triazol-1-yl)ethyl)indolin-2-one] | 0.81 | 1.32 | –
10 | CON=C1C(=O)N(CCn2cc(COC3O[C@@H]4O[C@@]5(C)CC[C@H]6[C@H](C)CC[C@@H]([C@H]3C)[C@@]46OO5)nn2)c2ccc(F)cc21 (stereo partly drawn) [9j, 5-fluoro-3-(methoxyimino)-1-(2-(4-((((3R,5aS,6R,8aS,9R,12R,12aR)-3,6,9-trimethyldecahydro-12H-3,12-epoxy[1,2]dioxepino[4,3-i]isochromen-10-yl)oxy)methyl)-1H-1,2,3-triazol-1-yl)ethyl)indolin-2-one] | 1.35 | 3.98 | –
11 | C[C@@H]1CC[C@H]2[C@@H](C)C(OCc3cn(CCN4C(=O)C(=NO)c5ccccc54)nn3)O[C@@H]3O[C@@]4(C)CC[C@@H]1[C@]32OO4 (stereo partly drawn) [9b, 3-(hydroxyimino)-1-(2-(4-((((3R,5aS,6R,8aS,9R,12R,12aR)-3,6,9-trimethyldecahydro-12H-3,12-epoxy[1,2]dioxepino[4,3-i]isochromen-10-yl)oxy)methyl)-1H-1,2,3-triazol-1-yl)ethyl)indolin-2-one] | 2.18 | 2.52 | –
12 | CCON=C1C(=O)N(CCn2cc(COC3O[C@@H]4O[C@@]5(C)CC[C@H]6[C@H](C)CC[C@@H]([C@H]3C)[C@@]46OO5)nn2)c2ccc(F)cc21 (stereo partly drawn) [9k, 3-(ethoxyimino)-5-fluoro-1-(2-(4-((((3R,5aS,6R,8aS,9R,12R,12aR)-3,6,9-trimethyldecahydro-12H-3,12-epoxy[1,2]dioxepino[4,3-i]isochromen-10-yl)oxy)methyl)-1H-1,2,3-triazol-1-yl)ethyl)indolin-2-one] | 1.97 | 1.82 | –
13 | N.N.[Cl][Pt][Cl] [cisplatin, reference compound] | 2.10 | 7.13 | –
14 | C[C@@H]1CC[C@H]2[C@@H](C)C(OCc3cn(CCN4C(=O)C(=NO)c5cc(F)ccc54)nn3)O[C@@H]3O[C@@]4(C)CC[C@@H]1[C@]32OO4 (stereo partly drawn) [9i, 5-fluoro-3-(hydroxyimino)-1-(2-(4-((((3R,5aS,6R,8aS,9R,12R,12aR)-3,6,9-trimethyldecahydro-12H-3,12-epoxy[1,2]dioxepino[4,3-i]isochromen-10-yl)oxy)methyl)-1H-1,2,3-triazol-1-yl)ethyl)indolin-2-one] | 1.75 | 1.57 | 4.6–7.6 folds
15 | C[C@@H]1CC[C@H]2[C@@H](C)C(OCc3cn(CCN4C(=O)C(=NOCc5ccccc5)c5ccccc54)nn3)O[C@@H]3O[C@@]4(C)CC[C@@H]1[C@]32OO4 (stereo partly drawn) [9e, 3-((benzyloxy)imino)-1-(2-(4-((((3R,5aS,6R,8aS,9R,12R,12aR)-3,6,9-trimethyldecahydro-12H-3,12-epoxy[1,2]dioxepino[4,3-i]isochromen-10-yl)oxy)methyl)-1H-1,2,3-triazol-1-yl)ethyl)indolin-2-one] | 1.92 | 1.83 | –
16 | C[C@@H]1CC[C@H]2[C@@H](C)C(OCc3cn(CCN4C(=O)C(=O)c5ccccc54)nn3)O[C@@H]3O[C@@]4(C)CC[C@@H]1[C@]32OO4 (stereo partly drawn) [8a, 1-(2-(4-((((3R,5aS,6R,8aS,9R,12R,12aR)-3,6,9-trimethyldecahydro-12H-3,12-epoxy[1,2]dioxepino[4,3-i]isochromen-10-yl)oxy)methyl)-1H-1,2,3-triazol-1-yl)ethyl)indoline-2,3-dione] | 1.45 | 1.29 | 4.6–7.6 folds

Some ranges recur; such a range may be that of the whole group of compounds.
